Where a name gives a salt, the structure may show the parent alone. At least one compound was matched to its structure with a doubt left.
System: cGMP
Experiment: Measurement of cGMP in penile tissues
Assay type: in vivo
Settings: male Sprague-Dawley rats, orally administered for 7 days twice a day; AFG 200 and 400 mg/kg/day, BGE 400 mg/kg/day, Viagra 1.7 mg/kg/day; vs negative control group; FIG. 10
Protocol: 8 weeks old male Sprague-Dawley rats were obtained from Orient Co., Ltd. (Korea) and used as exprimental animals. A breeding cage was conditioned with artificial lighting for 12 hours (8:00 a.m. to 8:00 p.m) and maintained at 20±3° C. The rats were provided with purified water and fed with pellet diet (Samyang diet, Korea). Food and water were not limited and supplied to the rats at a certain time of 9:00 a.m. to 10:00 a.m. every day.
8 weeks old male Sprague-Dawley rats were allowed to be adapted to the environment of the breeding cage. Depending on their body weight, the rats were divided into 5 groups of control group (saline), Viagra® group (1.7 mg/kg/day), two AFG groups (200 and 400 mg/kg/day) and BGE (conventional red ginseng) group (400 mg/kg/day) and orally administered for 7 days twice a day (in the morning and in the afternoon). The amount of dietary intake was measured at a certain time of 9:00 a.m. to 10:00 a.m. every day.
After the end of feeding period, the rats were fasted for 12 hours and anesthetized with […]. […]
The concentration of cGMP was measured by a method which slightly modifies methods proposed by Park (J. Ethnopharmacol, 2004) and Knowles (Biochem. J, 1990). […]
A standard curve was created by using 0.8-50 pmol/mL of cGMP, and the concentration of cGMP was measured by cGMP ELISA kit (Aassay Designs, Inc., Michigan). […]

With `CCCc1nn(C)c2c(=O)[nH]c(-c3cc(S(=O)(=O)N4CCN(C)CC4)ccc3OCC)nc12` [Viagra®, sildenafil citrate, reference compound] the “concentration of cGMP in the penile tissues” value was “too high”.

Reference: US20120245343A1, “ARGININE DERIVATIVES OR SALTS THEREOF EXHIBITING THE EFFECTS OF IMPROVING SEXUAL FUNCTION, COMPOSITION FOR IMPROVING SEXUAL FUNCTION COMPRISING SAME, AND METHOD FOR PREPARING SAME” (priority 2009, published 2012)
